Source: patent publication US20070149763A1 (Bristol-Myers Squibb, published 2007)
No constants are given. Whether binding was seen depends on the method and setting. Some entries that bind do so weakly or less than the wild type.

Sequences of proteins named here, by UniProt entry; tags and fusion partners are left off. A change or cut given only in a name is not applied to a line headed by its entry. Residues count along the entry.
UniProt P56817, residues 14-454: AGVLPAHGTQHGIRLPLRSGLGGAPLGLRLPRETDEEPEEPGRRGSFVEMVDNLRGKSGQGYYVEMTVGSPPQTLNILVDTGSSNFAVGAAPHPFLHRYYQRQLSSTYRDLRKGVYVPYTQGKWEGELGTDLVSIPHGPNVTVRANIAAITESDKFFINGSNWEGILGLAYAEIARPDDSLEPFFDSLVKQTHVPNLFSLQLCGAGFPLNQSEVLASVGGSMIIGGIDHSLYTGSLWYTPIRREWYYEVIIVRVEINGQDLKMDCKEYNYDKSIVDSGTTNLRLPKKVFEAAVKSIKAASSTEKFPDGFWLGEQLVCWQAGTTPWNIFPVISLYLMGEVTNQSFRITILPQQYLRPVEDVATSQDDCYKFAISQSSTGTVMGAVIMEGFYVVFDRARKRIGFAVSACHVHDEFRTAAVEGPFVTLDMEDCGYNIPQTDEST

T1: BACE-1 (T7-BACE1(A14-T454/R56K/R57K)) (Homo sapiens (Human)) (UniProt P56817)
T1 sequence: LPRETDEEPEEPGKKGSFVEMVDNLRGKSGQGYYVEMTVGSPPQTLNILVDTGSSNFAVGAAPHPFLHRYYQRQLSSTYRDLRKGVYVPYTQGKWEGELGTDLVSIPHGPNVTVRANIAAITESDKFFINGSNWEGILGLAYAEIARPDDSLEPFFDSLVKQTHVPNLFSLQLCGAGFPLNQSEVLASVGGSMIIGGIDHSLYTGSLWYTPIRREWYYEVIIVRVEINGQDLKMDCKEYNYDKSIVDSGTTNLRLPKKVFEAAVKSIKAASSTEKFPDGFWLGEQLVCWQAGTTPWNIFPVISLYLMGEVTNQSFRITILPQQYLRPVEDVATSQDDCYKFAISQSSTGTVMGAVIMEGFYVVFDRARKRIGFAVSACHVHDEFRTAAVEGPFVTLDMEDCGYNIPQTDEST


Key:
[1] = biological target: T1, BACE-1 (T7-BACE1(A14-T454/R56K/R57K)) (Homo sapiens (Human)); assay: X-ray crystallography, peptide soaked into BACE-1/DPH-153979 co-crystal
[2] = biological target: catalytic domain of human BACE purified from E. coli cells (human) (UniProt P56817); assay: fluorescence anisotropy binding assay

binding [1] | binding [2] | Binder
binds |  | NLTTYPYFIPLP (N-terminal acetyl (no C-terminal carboxy amide) in the synthetic peptide) […]
 | binds | YPYFIPL (C-terminal Alexa488 through a linker (n=1, FIG. 4)) [Molecule Y1 (YPYFIPL with C-terminal Alexa488)]
